Values from PubChem BioAssay AID1259254 (NCATS, 2017).
Screen: 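Gene knock-downs that lead to re-replication, shown by excess G2 DNA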 (primary screen). Cells: human HCT116 colorectal cancer cells. Reagent: single siRNA against human genes. Duration: 3 days. Measurement: 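Imaged Hoechst DNA stain sorts each cell into a cycle phase by DNA amount; per plate, G2 fraction set to 0% for non-targeting and 100% for GMNN siRNA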. Direction: G2 robust z-score: higher = more G2 cells, more excess DNA replication. Hit rule: 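Active siRNAs have a G2 robust z of 5 or more median absolute deviations over the median, which in these data means about 38% or higher of GMNN control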.
The whole screen tested about 59,000 reagents; shown is a random part of them. Of all reagents, about 1,550 (2.6%) were called active. 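G2 share is only a proxy for re-replication; each gene was hit by three separate siRNAs, and active genes were retested.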 Reagents against one gene are numbered here. Not all columns of the deposit are shown. The record does not give: the amount of reagent.

| gene | siRNA no. | G2 robust z-score | Call |
| --- | --- | --- | --- |
| C1GALT1 (GeneID 56913) | 1 | -1.08 | inactive |
| C1GALT1 (GeneID 56913) | 2 | -0.567 | inactive |
| C1GALT1 (GeneID 56913) | 3 | 1.11 | inactive |
| PRDM16 (GeneID 63976) | 1 | -0.508 | inactive |
| PRDM16 (GeneID 63976) | 2 | 3.1 | inactive |
| PRDM16 (GeneID 63976) | 3 | 0.753 | inactive |
| PRDM16 (GeneID 63976) | 4 | 1.89 | inactive |
| PRDM16 (GeneID 63976) | 5 | -0.948 | inactive |
| PRDM16 (GeneID 63976) | 6 | 0.482 | inactive |
| LOC732272 (retired record) (GeneID 732272) | 1 | 0.782 | inactive |
| LOC732272 (retired record) (GeneID 732272) | 2 | 1.43 | inactive |
| LOC732272 (retired record) (GeneID 732272) | 3 | 3.52 | inactive |
| IL12RB1 (GeneID 3594) | 1 | -0.818 | inactive |
| IL12RB1 (GeneID 3594) | 2 | -0.822 | inactive |
| IL12RB1 (GeneID 3594) | 3 | 0.141 | inactive |
| RFWD3 (GeneID 55159) | 1 | -0.531 | inactive |
| RFWD3 (GeneID 55159) | 2 | -0.182 | inactive |
| RFWD3 (GeneID 55159) | 3 | 0.424 | inactive |
| LOC400682 (GeneID 400682) | 1 | -0.281 | inactive |
| LOC400682 (GeneID 400682) | 2 | 0.653 | inactive |
| LOC400682 (GeneID 400682) | 3 | -0.792 | inactive |
| SYNGR2 (GeneID 9144) | 1 | -0.892 | inactive |
| SYNGR2 (GeneID 9144) | 2 | 3.08 | inactive |
| SYNGR2 (GeneID 9144) | 3 | -0.828 | inactive |
| EPB41L1 (GeneID 2036) | 1 | -0.0905 | inactive |
| EPB41L1 (GeneID 2036) | 2 | 0.726 | inactive |
| EPB41L1 (GeneID 2036) | 3 | -0.57 | inactive |
| LOC728147 (retired record) (GeneID 728147) | 1 | -0.902 | inactive |
| LOC728147 (retired record) (GeneID 728147) | 2 | 0.249 | inactive |
| LOC728147 (retired record) (GeneID 728147) | 3 | -0.0573 | inactive |
| OR2G3 (GeneID 81469) | 1 | -0.698 | inactive |
| OR2G3 (GeneID 81469) | 2 | 0.756 | inactive |
| OR2G3 (GeneID 81469) | 3 | -0.41 | inactive |

A portion of the results above:
| gene | siRNA no. | G2 robust z-score | Call |
| --- | --- | --- | --- |
| PRDM16 (GeneID 63976) | 2 | 3.1 | inactive |
| PRDM16 (GeneID 63976) | 3 | 0.753 | inactive |
| PRDM16 (GeneID 63976) | 4 | 1.89 | inactive |
| PRDM16 (GeneID 63976) | 5 | -0.948 | inactive |
| PRDM16 (GeneID 63976) | 6 | 0.482 | inactive |
| LOC732272 (retired record) (GeneID 732272) | 1 | 0.782 | inactive |
| LOC732272 (retired record) (GeneID 732272) | 2 | 1.43 | inactive |

Further records:
| gene | siRNA no. | G2 robust z-score | Call |
| --- | --- | --- | --- |
| TFF3 (GeneID 7033) | 1 | 0.233 | inactive |
| TFF3 (GeneID 7033) | 2 | -0.218 | inactive |
| TFF3 (GeneID 7033) | 3 | -0.414 | inactive |
| VWCE (GeneID 220001) | 1 | 0.451 | inactive |
| VWCE (GeneID 220001) | 2 | -0.421 | inactive |
| VWCE (GeneID 220001) | 3 | -0.639 | inactive |
| SLC9A1 (GeneID 6548) | 1 | 1.45 | inactive |
| SLC9A1 (GeneID 6548) | 2 | 0.215 | inactive |
| SLC9A1 (GeneID 6548) | 3 | 0.163 | inactive |
| DRD4 (GeneID 1815) | 1 | -0.567 | inactive |
| DRD4 (GeneID 1815) | 2 | 0.105 | inactive |
| DRD4 (GeneID 1815) | 3 | -0.456 | inactive |
| MCOLN2 (GeneID 255231) | 1 | 0.092 | inactive |
| MCOLN2 (GeneID 255231) | 2 | -0.478 | inactive |
| MCOLN2 (GeneID 255231) | 3 | -0.955 | inactive |
| NDRG1 (GeneID 10397) | 1 | 0.173 | inactive |
| NDRG1 (GeneID 10397) | 2 | 0.171 | inactive |
| NDRG1 (GeneID 10397) | 3 | 0.727 | inactive |
| HMGA2 (GeneID 8091) | 1 | 0.13 | inactive |
| HMGA2 (GeneID 8091) | 2 | 0.303 | inactive |
| HMGA2 (GeneID 8091) | 3 | 0.851 | inactive |
| REG3G (GeneID 130120) | 1 | -0.377 | inactive |
| REG3G (GeneID 130120) | 2 | -0.953 | inactive |
| REG3G (GeneID 130120) | 3 | 2.62 | inactive |
| CFAP298 (GeneID 56683) | 1 | 0.0259 | inactive |
| CFAP298 (GeneID 56683) | 2 | 0.201 | inactive |
| CFAP298 (GeneID 56683) | 3 | 1.33 | inactive |
| XRCC1 (GeneID 7515) | 1 | 0.124 | inactive |
| XRCC1 (GeneID 7515) | 2 | -0.825 | inactive |
| XRCC1 (GeneID 7515) | 3 | -0.422 | inactive |
| PERM1 (GeneID 84808) | 1 | -0.516 | inactive |
| PERM1 (GeneID 84808) | 2 | 4.45 | inactive |
| PERM1 (GeneID 84808) | 3 | 0.724 | inactive |
| B3GALT2 (GeneID 8707) | 1 | -0.339 | inactive |
| B3GALT2 (GeneID 8707) | 2 | 1.94 | inactive |
| B3GALT2 (GeneID 8707) | 3 | -0.898 | inactive |
